Data: PubChem BioAssay AID188 (DTP/NCI, 2004)
Values are animals surviving of animals treated; these mice carried no tumour. Survivors were counted at the toxicity check, usually on the fifth day, unless a day is given; later deaths do not show. Schedules are NCI's codes, taken here to give the interval after Q, in days (D) or hours (H), and the number of doses after X. Some entries were tested several times; their values stand side by side, smallest first.

Test system: CD2F1 mice, nontumored, toxicity/survival
Test: NCI In Vivo Anticancer Drug Screen. Data for tumor model Nontumored Animals (Toxicity Test) in CD2F1 (CDF1) mice

Question: With `Nc1ncc2ccccc2c1-c1ccc(NC(=O)CCCl)cc1` as the compound, how does the survivor count (dose: 1.0 mg/kg/injection, schedule: Q01DX001 (ip), vehicle: DMSO) read?
Answer: 2 of 2

Question: And the survivor count (dose: 10.0 mg/kg/injection, schedule: Q01DX001 (ip), vehicle: DMSO)?
Answer: 2 of 2

Question: And the survivor count (dose: 100.0 mg/kg/injection, schedule: Q01DX001 (ip), vehicle: DMSO)?
Answer: 2 of 2

Question: `OCN(CO)c1nc(CCC(Cl)(Cl)Cl)nc(N(CO)CO)n1` was tested. Which survivor count (dose: 1.0 mg/kg/injection, schedule: Q01DX001 (ip), vehicle: distilled water + Tween-80) did it give?
Answer: 2 of 2

Question: What about the survivor count (dose: 10.0 mg/kg/injection, schedule: Q01DX001 (ip), vehicle: distilled water + Tween-80) of the same compound?
Answer: 2 of 2

Question: And the survivor count (dose: 100.0 mg/kg/injection, schedule: Q01DX001 (ip), vehicle: distilled water + Tween-80)?
Answer: 2 of 2

Question: What does the source list for `CC1CCC(NC(=O)N(CCCl)N=O)CC1` (stereo unspecified)?
Answer: survivor count (dose: 3.0 mg/kg/injection, schedule: Q04DX002 (ip), vehicle: other): 10 of 10; survivor count (dose: 5.0 mg/kg/injection, schedule: Q01DX001 (ip), vehicle: other): 4 of 4; survivor count (dose: 5.8 mg/kg/injection, schedule: Q04DX002 (ip), vehicle: saline + alcohol): 4 of 4; survivor count (dose: 6.0 mg/kg/injection, schedule: Q04DX002 (ip), vehicle: other): 10 of 10; survivor count (dose: 9.6 mg/kg/injection, schedule: Q04DX002 (ip), vehicle: saline + alcohol): 4 of 4; survivor count (dose: 10.0 mg/kg/injection, schedule: Q01DX001 (ip), vehicle: other): 4 of 4; survivor count (dose: 10.9 mg/kg/injection, schedule: Q01DX001 (oral), vehicle: Klucel (hydroxypropylcellulose) (HPC)): 10 of 10; survivor count (dose: 10.9 mg/kg/injection, schedule: Q01DX001 (oral), vehicle: clinical formulation): 9 of 10; survivor count (dose: 12.0 mg/kg/injection, schedule: Q04DX002 (ip), vehicle: other): 10 of 10; survivor count (dose: 16.0 mg/kg/injection, schedule: Q04DX002 (ip), vehicle: saline + alcohol): 4 of 4; survivor count (dose: 16.5 mg/kg/injection, schedule: Q01DX001 (oral), vehicle: Klucel (hydroxypropylcellulose) (HPC)): 10 of 10; survivor count (dose: 16.5 mg/kg/injection, schedule: Q01DX001 (oral), vehicle: clinical formulation): 9 of 10; survivor count (dose: 20.0 mg/kg/injection, schedule: Q01DX001 (ip), vehicle: other): 4 of 4; survivor count (dose: 24.0 mg/kg/injection, schedule: Q01DX001 (ip), vehicle: other): 4 of 4; survivor count (dose: 24.7 mg/kg/injection, schedule: Q01DX001 (oral), vehicle: Klucel (hydroxypropylcellulose) (HPC)): 10 of 10; survivor count (dose: 24.7 mg/kg/injection, schedule: Q01DX001 (oral), vehicle: clinical formulation): 10 of 10; survivor count (dose: 26.7 mg/kg/injection, schedule: Q04DX002 (ip), vehicle: saline + alcohol): 4 of 4; survivor count (dose: 27.0 mg/kg/injection, schedule: Q01DX001 (ip), vehicle: saline with Tween-80): 10 of 10; survivor count (dose: 36.0 mg/kg/injection, schedule: Q01DX001 (ip), vehicle: other): 4 of 4; survivor count (dose: 37.0 mg/kg/injection, schedule: Q01DX001 (oral), vehicle: Klucel (hydroxypropylcellulose) (HPC)): 9 of 10; survivor count (dose: 37.0 mg/kg/injection, schedule: Q01DX001 (oral), vehicle: clinical formulation): 8 of 10; survivor count (dose: 40.0 mg/kg/injection, schedule: Q01DX001 (ip), vehicle: other): 4 of 4; survivor count (dose: 40.0 mg/kg/injection, schedule: Q01DX001 (ip), vehicle: saline with Tween-80): 10 of 10 and 4 of 4; survivor count (dose: 50.0 mg/kg/injection, schedule: Q01DX001 (ip), vehicle: saline with Tween-80): 10 of 10; survivor count (dose: 55.5 mg/kg/injection, schedule: Q01DX001 (oral), vehicle: Klucel (hydroxypropylcellulose) (HPC)): 6 of 10; survivor count (dose: 55.5 mg/kg/injection, schedule: Q01DX001 (oral), vehicle: clinical formulation): 3 of 10; survivor count (dose: 60.0 mg/kg/injection, schedule: Q01DX001 (ip), vehicle: other): 4 of 4; survivor count (dose: 66.7 mg/kg/injection, schedule: Q01DX001 (ip), vehicle: saline with Tween-80): 4 of 4; survivor count (dose: 83.3 mg/kg/injection, schedule: Q01DX001 (oral), vehicle: Klucel (hydroxypropylcellulose) (HPC)): 0 of 10; survivor count (dose: 83.3 mg/kg/injection, schedule: Q01DX001 (oral), vehicle: clinical formulation): 1 of 10; survivor count (dose: 100.0 mg/kg/injection, schedule: Q01DX001 (ip), vehicle: other): 4 of 4; survivor count (dose: 125.0 mg/kg/injection, schedule: Q01DX001 (oral), vehicle: Klucel (hydroxypropylcellulose) (HPC)): 0 of 10; survivor count (dose: 125.0 mg/kg/injection, schedule: Q01DX001 (oral), vehicle: clinical formulation): 0 of 10; survivor count (dose: 187.5 mg/kg/injection, schedule: Q01DX001 (oral), vehicle: Klucel (hydroxypropylcellulose) (HPC)): 0 of 10; survivor count (dose: 187.5 mg/kg/injection, schedule: Q01DX001 (oral), vehicle: clinical formulation): 0 of 10
